This experiment relates to Plasmodium falciparum NF54/iGP1_RE9H ulg8 stage V gametocytes. The experiment can be described thus: gametocyte viability (luciferase signal relative to DMSO control) (% of DMSO control); higher = less gametocytocidal activity, active = 50 or less. The note with it: exposure time: 72 h. In short, it runs like this: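 Compounds from 10 mM DMSO stocks were spotted at nanolitre scale into 96-well plates, and day-12 stage V NF54/iGP1_RE9Hulg8 gametocytes (~2.5% gametocytemia, 3% hematocrit; medium with 0.5% Albumax II) were added to reach 10 µM or 1 µM, one well per concentration. The plates were kept at 37 °C for 72 h. Luminescence was then read on an IVIS Lumina II after mixing 90 µl of culture with 10 µl D-luciferin (30 mg/ml). Viability values are relative to the plate's mean DMSO vehicle signal.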

The values below come from the supplement of paper PMC12297408.

Counter-ions that a name gives are not always drawn. What follows is the remainder of the data, with few or none of the hits.

On to `CN1[C@@H]2CC[C@H]1C[C@@H](OC(=O)C(O)c1ccccc1)C2` (mixture of isomers) [Homatropine hydrobromide (R,S)], for which the gametocyte viability runs as follows: (concentration: 1 µM) inactive: 97.3; (concentration: 10 µM) inactive: 104.
